Assay results taken from patent US20250288512A1, “USE OF CELL MEMBRANE-BOUND SIGNALING FACTORS” (AIVITA Biomedical, Inc., priority 2016, published 2025).

Test system: hESC
Experiment: Capture of lipid-modified Wnt/Shh proteins from embryonic stem cell cultures by cyclodextrin solution
Assay type: cell-based, human
Settings: 10 mM cyclodextrin, 3 hr exposure
Method: Embryonic stem cells were expanded according to current published methods using a serum free media supplemented with bFGF (10 ng/ml) and activin A (5 ng/ml) on an adherent substrate consisting on a thin layer of MATRIGEL®. After confluence, half of the cultures were fed with the same media not including the growth factors bFGF and Activin A. A cell culture supernatant sample was analyzed for follistatin concentration.
Individual cultures, undifferentiated or partial differentiated, were exposed to 10 mM solution of α-cyclodextrin, β-cyclodextrin, γ-cyclodextrin, or methyl-β-cyclodextrin (MBCD) for 60 min to 180 min. The cell cultures before exposure were smooth, compact, and multilayered (FIG. 5A). After incubation with a cyclodextrin, the cultures were disrupted with the majority of cells losing adherence (FIG. 5B).
The MBCD solution incubated with the cells was then analyzed for the concentration of Shh, Wnt 3a, and Wnt7a.

Substance: methyl-β-cyclodextrin [methyl-beta-cyclodextrin]
- Concentration of Shh in the methyl-beta-cyclodextrin capture solution (Partial differentiated hESC): 570.900 ng/mL
- Concentration of Wnt3a in the methyl-beta-cyclodextrin capture solution (Partial differentiated hESC): 7.720 ng/mL
- Concentration of Wnt7b in the methyl-beta-cyclodextrin capture solution (Partial differentiated hESC): 24.658 ng/mL
- Concentration of Shh in the methyl-beta-cyclodextrin capture solution (Undifferentiated hESC): 0.000 ng/mL
- Concentration of Wnt3a in the methyl-beta-cyclodextrin capture solution (Undifferentiated hESC): 7.950 ng/mL
- Concentration of Wnt7b in the methyl-beta-cyclodextrin capture solution (Undifferentiated hESC): 27.026 ng/mL
